Experimental data as given in patent publication US11471468B2, “Methods and systems for conditioning of particulate crystalline materials” (Pearl Therapeutics, Inc., priority 2013, dated 2022).
For at least one compound, name, drawing or mass did not settle the structure.

Experiments:
Type in all cases: physicochemical
[1] = Particle size distribution by laser diffraction (Sympatec) after processing; details: micronized budesonide
Text: When referred to herein, the term “optical diameter” indicates the size of a particle as measured using a laser diffraction particle size analyzer equipped with a dry powder dispenser (e.g., Sympatec GmbH, Clausthal-Zellerfeld, Germany).
(§1) A portion of the micronized GP was also conditioned using an in-process conditioning system wherein nitrogen conditioning gas was supplied to the in-process conditioning system and was controlled for flow rate, temperature and humidity. The conditioning gas was humidified through a droplet evaporation chamber after which it was directed to a mixing zone. In the mixing zone, the conditioning gas was mixed with the jet-milled aerosol comprising the micronized GP. The aerosol then entered a conditioning zone where annealing of the micronized GP occurred. The particle residence time through the conditioning zone was adjusted by means of the conditioning zone chamber geometry and/or the gas flow rate through the conditioning zone chamber. After passing through the conditioning zone, the micronized GP particles reached the cyclone-collection zone where the solid particles were separated from the gas phase and transported to a collection vessel. Upon completion of the batch processing, the collector was disengaged and transferred to a glove box for sampling. The sampling occurred in a <5% relative humidity environment. Samples were then analyzed for particle size distribution and amorphous content.
Both micronized sucrose batches were analyzed for particle size distribution by Sympatec laser diffraction.

[2] = Amorphous content by (dynamic) vapor sorption; details: for Amorphous content by ethanol vapor sorption isotherm: 25° C., FIG. 9 / FIG. 11
Text: as §1
(§2) The amorphous content by vapor sorption and particle morphology for both batches were also assessed. FIG. 9 provides the ethanol vapor sorption isotherm at 25° C. for both batches of micronized budesonide.
(§3) The amorphous content by vapor sorption and particle morphology for both batches were also assessed. FIG. 11 provides the ethanol vapor sorption isotherm at 25° C. for both batches of micronized fluticasone.
All batches were also analyzed for amorphous content by dynamic vapor sorption using n=2 replicates per collector.
(§4) The amorphous content by vapor sorption and particle morphology for both batches of micronized sucrose were also assessed. FIG. 13 provides the water vapor sorption isotherm at 25° C. for both batches of micronized sucrose.

[3] = Particle size distribution by laser diffraction (Sympatec) after processing; details: micronized budesonide; remark: listed apart in the source
[4] = Particle morphology by electron micrograph / SEM; details: FIG. 10 / FIG. 12 / FIG. 14
Protocol: as §2, §3, §4

Compound	D10 [1] [μm]	D50 [1] [μm]	D90 [1] [μm]	Amorphous content by ethanol vapor sorption isotherm [2]	Span [3]	Particle morphology by SEM, annealed compared with unannealed material [4]	Ethanol relative pressure at which weight loss is seen ([2]; ethanol vapor sorption isotherm at 25° C.) [% p/po]
CCCC1O[C@@H]2C[C@H]3[C@@H]4CCC5=CC(=O)C=C[C@]5(C)[C@H]4[C@@H](O)C[C@]3(C)[C@]2(C(=O)CO)O1 (stereo partly drawn) [Micronized Budesonide, Batch 2 (annealed)]	0.5	1.2	2.5	stable and showed no crystallization event	1.7	smoother surfaces and more rounded edges	–
CCCC1O[C@@H]2C[C@H]3[C@@H]4CCC5=CC(=O)C=C[C@]5(C)[C@H]4[C@@H](O)C[C@]3(C)[C@]2(C(=O)CO)O1 (stereo partly drawn) [Micronized Budesonide, Batch 1 (unannealed)]	0.6	2.3	5.4	remained substantially amorphous	2.1	–	60
